The results in this text go back to article PMC6430473.

Construct, isoform or probe ends are uncertain for at least one entry.

The data set has as its system RNA polymerase holoenzyme (Escherichia coli). Kind of data set: EMSA. To be noted: RNAP alone; commercial protein; label: FAM; probe letters rebuilt from the primers and the genome. In general terms: In EMSA bound probe runs differently from free probe, usually more slowly.

With “AGTTCGGTGCGCAGGAAGGACATGGGGGACACTCCAGGGACAAGAACGACAGTCCTGCGGACAGCGCGCAGGGGGCACTAGTGTGCGGGAAAGCGACCGCTCCCGCAGCCGCGATGTGATCGGTGCGGCAATGGTGTTTTCTGTGGGGACGATCACACCACGCGACGCGCGCACAGACCAAGATGCCCGCCTTACCGCGCTCGGGTGTCGAGCCCGGTTCTCTAGGGAGATCACCATGTCCATATTCAGGACCGCAAGCACGCTCGCTTTGGCCACCGCCCTCGCACTGGCCGCCGGGCCGGCCTTCAGCTATTCCA (double strand) [P-191/+126]”, the binding result is “binds”.
